Experimental data reported in patent US10617749B1, “Composition of matter and methods for alteration of dendritic cell metabolism to augment cancer vaccine efficacy” (Duke University, priority 2016, dated 2020).
These are yes or no findings as the source states them, for the method shown. Binding seen in cells or lysates may run through a third protein. Some binding calls cover weakened binding; strength is not graded here.

The chains behind the UniProt entries cited, without tags or fusion partners. Residues count along the entry.
UniProt Q02248, residues 2-781: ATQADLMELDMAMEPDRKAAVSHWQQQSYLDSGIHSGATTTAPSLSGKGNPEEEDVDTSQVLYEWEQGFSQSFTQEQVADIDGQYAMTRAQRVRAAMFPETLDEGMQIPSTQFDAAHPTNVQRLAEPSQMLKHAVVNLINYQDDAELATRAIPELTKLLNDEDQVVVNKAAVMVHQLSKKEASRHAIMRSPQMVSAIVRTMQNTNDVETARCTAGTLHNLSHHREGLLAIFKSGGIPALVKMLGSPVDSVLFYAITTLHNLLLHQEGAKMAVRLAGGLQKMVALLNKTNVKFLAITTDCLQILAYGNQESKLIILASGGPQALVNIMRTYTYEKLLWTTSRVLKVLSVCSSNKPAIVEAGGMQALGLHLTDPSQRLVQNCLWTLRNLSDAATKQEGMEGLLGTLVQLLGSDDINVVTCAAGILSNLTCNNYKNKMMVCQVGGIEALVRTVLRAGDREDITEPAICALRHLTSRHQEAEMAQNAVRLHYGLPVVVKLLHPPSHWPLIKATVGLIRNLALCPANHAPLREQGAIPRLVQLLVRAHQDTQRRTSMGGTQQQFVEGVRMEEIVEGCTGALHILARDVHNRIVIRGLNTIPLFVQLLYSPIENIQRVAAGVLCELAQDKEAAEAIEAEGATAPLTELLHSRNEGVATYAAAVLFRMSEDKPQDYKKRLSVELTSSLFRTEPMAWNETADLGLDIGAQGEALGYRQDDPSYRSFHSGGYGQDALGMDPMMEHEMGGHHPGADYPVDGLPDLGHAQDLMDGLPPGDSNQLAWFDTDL
UniProt P37238: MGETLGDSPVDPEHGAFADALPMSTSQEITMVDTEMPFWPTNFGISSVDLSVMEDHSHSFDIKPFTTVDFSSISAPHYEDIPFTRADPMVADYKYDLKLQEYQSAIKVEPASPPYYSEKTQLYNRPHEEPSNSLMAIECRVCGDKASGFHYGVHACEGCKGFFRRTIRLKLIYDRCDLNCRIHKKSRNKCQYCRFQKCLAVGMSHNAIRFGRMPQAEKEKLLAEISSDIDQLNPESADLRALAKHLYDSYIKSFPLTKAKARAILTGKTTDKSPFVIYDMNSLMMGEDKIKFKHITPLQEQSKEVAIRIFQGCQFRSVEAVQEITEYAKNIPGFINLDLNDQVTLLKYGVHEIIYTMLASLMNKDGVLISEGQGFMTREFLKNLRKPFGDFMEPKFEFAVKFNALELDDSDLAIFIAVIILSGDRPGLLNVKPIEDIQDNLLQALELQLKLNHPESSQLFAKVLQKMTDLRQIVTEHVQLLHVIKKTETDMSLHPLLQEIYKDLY

How the values were obtained:
[1] = biological target: β-catenin (murine (BMDCs)) (UniProt Q02248); assay: endogenous co-immunoprecipitation in primary DCs (β-catenin IP, PPARγ Western blot)
[2] = biological target: β-catenin (murine (BMDCs)) (UniProt Q02248); assay: endogenous co-immunoprecipitation in primary DCs

binding [1]: binds | binding [2]: binds
Substance: PPAR-γ (peroxisome proliferator-activated receptor gamma) (from UniProt P37238 1-505)
